{
  "source": "patent US12570688",
  "target": "T1, SENP1 (UniProt Q9P0U3)",
  "T1 sequence (looked up)": "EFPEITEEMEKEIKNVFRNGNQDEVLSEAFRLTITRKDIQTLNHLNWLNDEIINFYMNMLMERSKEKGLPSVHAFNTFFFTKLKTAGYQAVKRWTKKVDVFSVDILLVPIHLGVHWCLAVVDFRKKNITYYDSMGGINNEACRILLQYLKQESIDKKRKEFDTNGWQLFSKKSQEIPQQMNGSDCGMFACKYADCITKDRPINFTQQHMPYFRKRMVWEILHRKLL",
  "test": "covalent adduct formation, gel (FIG. 4C)",
  "note": "These are yes or no findings as the source states them, for the method shown. Some binding calls cover weakened binding; strength is not graded here. Sequences can lack the tags named with a protein.",
  "data": [
    {"binder": "FLAG-SUMO4-propargylamine conjugate (protein, UniProt Q6EEV6 1-92, looked up, not shown: small tags and cut ends, C-terminal glycine replaced by propargylamine (Pa)) MANEKPTEEVKTENNNHINLKVAGQDGSVVQFKIKRQTPLSKLMKAYAEPRGLSVKQIRFRFGGQPISGTDKPAQLEMEDEDTIDVFQQPTG", "values": [
      {"measurement": "binding", "result": "binds"}
    ]}
  ]
}
